# Measurements: PubChem BioAssay (NCATS)
# Sequences of proteins named here, by UniProt entry; tags and fusion partners are left off. A change or cut given only in a name is not applied to a line headed by its entry.
# UniProt P21964: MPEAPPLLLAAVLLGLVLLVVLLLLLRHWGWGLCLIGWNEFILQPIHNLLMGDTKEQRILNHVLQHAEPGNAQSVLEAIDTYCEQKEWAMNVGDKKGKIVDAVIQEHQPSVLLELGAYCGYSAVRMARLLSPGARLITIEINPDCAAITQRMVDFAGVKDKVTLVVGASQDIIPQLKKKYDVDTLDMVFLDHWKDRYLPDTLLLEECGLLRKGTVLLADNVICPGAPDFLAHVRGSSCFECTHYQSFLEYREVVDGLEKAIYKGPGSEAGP
# UniProt P50135: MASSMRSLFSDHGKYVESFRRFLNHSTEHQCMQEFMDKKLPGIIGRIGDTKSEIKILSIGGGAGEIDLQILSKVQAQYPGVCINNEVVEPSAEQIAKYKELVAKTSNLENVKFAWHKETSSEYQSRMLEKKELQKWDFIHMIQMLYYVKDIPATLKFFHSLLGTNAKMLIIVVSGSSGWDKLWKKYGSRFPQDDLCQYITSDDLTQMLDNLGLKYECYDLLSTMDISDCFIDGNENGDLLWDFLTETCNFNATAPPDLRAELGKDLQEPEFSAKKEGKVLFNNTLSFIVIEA
# UniProt P40261: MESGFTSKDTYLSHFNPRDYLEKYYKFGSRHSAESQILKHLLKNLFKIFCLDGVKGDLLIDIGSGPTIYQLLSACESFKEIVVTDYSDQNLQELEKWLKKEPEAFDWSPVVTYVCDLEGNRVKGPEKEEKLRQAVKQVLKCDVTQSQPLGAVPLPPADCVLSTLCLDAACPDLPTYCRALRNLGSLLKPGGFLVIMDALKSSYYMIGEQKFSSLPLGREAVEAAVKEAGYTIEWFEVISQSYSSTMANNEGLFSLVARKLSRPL
# UniProt P11086: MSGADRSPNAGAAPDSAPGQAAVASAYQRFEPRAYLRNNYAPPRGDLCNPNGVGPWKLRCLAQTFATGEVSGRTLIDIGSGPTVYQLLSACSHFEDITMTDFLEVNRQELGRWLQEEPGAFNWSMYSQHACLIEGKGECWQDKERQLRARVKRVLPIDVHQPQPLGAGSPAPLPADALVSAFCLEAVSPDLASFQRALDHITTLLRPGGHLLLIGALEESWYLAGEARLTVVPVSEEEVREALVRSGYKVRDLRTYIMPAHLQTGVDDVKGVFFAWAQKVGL
# Values joined by “and” are separate entries in the source; they are usually repeats but may differ in a detail not shown here. Equal entries are not always repeated. The list shows a part of the results. The main result of the screen is listed elsewhere. These columns were measured beside it and carry no call. For some of these results: The list favours compounds with an active or inconclusive main result. For some of these results: Potencies come from curve fits of mixed quality, noted in brackets.
# Assays:
# [1] = qHTS Assay for Inhibitors of PDE-IV (AID 607); settings: HEK293 ACTOne CNG channel cells, membrane potential fluorescence; measured here: parental cell counter-screen
# Method in brief: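 HEK293 ACTOne cells with CNG channel (1000/well), endogenous PDE4; membrane potential dye, compounds up to 22.9 uM final. Fluorescence Ex 535/Em 590; RO 20-1724 (100 uM final) as reference.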
# [2] = qHTS Assay for Lipid Storage Modulators (AID 1519); settings: Drosophila S3 cells, BODIPY lipid droplet/cell ratio, laser cytometry, cells loaded with oleic acid
# Method in brief: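 Cells seeded at 5,000 per well were treated with compounds over a concentration series and loaded with oleic acid (400 uM, as added). Lipid droplet fluorescence (488 nm excitation, 500-530 nm channel) was read by laser-scanning cytometry and normalized to 20 uM Triacsin C.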
# [3] = qHTS for identification of novel therapeutic agents for treatment of microphthalmiaassociated transcription factor (MiT) renal cell carcinoma (RCC) (AID 1963991); settings: CellTiter-Glo, 48 h; for z-score: stronger effect = lower value
# Method in brief: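 Three TFE3-fusion RCC lines (UOK109, UOK124, UOK145), 500 cells/well in complete medium, were treated with MIPE 4.0 compounds for 48 hours at 37 C. Viability was by CellTiter-Glo luminescence, normalized to DMSO (100%) and empty wells (0%); curves fitted over 11 concentrations.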
# [4] = S16 Schwann cell PMP22 intronic element beta-lactamase assay (AID 624044); settings: S16 rat Schwann cells, PMP22 element beta-lactamase FRET, 24 h
# Method in brief: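 Rat S16 Schwann cells with beta-Lac driven by a PMP22 intronic element, compound-treated 24 h at 37 °C. LiveBLAzer FRET B/G read: 460 nm normalized to potassium clavulanate vs DMSO; 535 nm FRET as viability; concentration-effect curves classified.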
# [5] = qHTS drug screen for cell cycle checkpoint inhibitors in PARPi-resistant BRCA-mutant ovarian cancer cell lines. (AID 1963452); settings: PEO1/OlaR viability, CellTiter-Glo luminescence, 96 h
# Method in brief: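 PEO1, PEO4 and PEO1/OlaR ovarian cancer cells, 600 per well, exposed 96 h at 37C to a dilution series. Viability read by CellTiter-Glo luminescence, normalized to DMSO and empty wells; activity summarized as Z-AUC.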
# [6] = qHTS Assay for Modulators of Human Peripheral Myelin Protein 22 (PMP22) Expression/Activity (AID 1967); settings: Cell-based PMP22 reporter, dual-color luciferase ratio; measured here: red reporter channel AC50; EF-alpha promoter control reporter in MSC80 mouse Schwann cells
# Method in brief: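 MSC80 mouse Schwann cells stably carrying Pmp22 promoter–green click beetle luciferase plus EF-alpha–red luciferase control were dosed for 24h at 37 °C. Dual-colour luminescence was filter-overlap corrected; %Activity came from green/red ratio versus untreated cells.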
# [7] = qHTS Validation Assay to Find Inhibitors of Chronic Active B-Cell Receptor Signaling (AID 485345); settings: ABC-DLBCL cells, chronic BCR signaling reporter; measured here: CBR control luciferase (viability counter)
# Method in brief: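 TMD8 ABC-DLBCL cells stably carrying doxycycline-inducible IkappaBalpha–green luciferase fusion plus unfused red luciferase; compounds 46 uM to 3 nM, 4 h at 37C with doxycycline. Corrected green/red luminescence ratio normalized to 10 uM MG-132 and basal cell wells; curves fitted.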
# [8] = Nrf2 qHTS screen for inhibitors: Validation (AID 493153); settings: A549 ARE-Fluc reporter, 18-24 h; AC50: CellTiter-Fluor fluorescence read, measured here: cytotoxicity CellTiter-Fluor AC50; viability change: measured here: cytotoxicity max response
# Method in brief: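 A549 cells carrying an ARE-driven firefly luciferase reporter, in 5% FBS OPTI-MEM, were treated with compounds in concentration-response for 18-24 h at 37°C. Viability was read by CellTiter-Fluor fluorescence, then Nrf2 activity by luciferase luminescence.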
# [9] = molecular target: Catechol O-methyltransferase (Homo sapiens) (UniProt P21964); assay: Confirmatory Screen for Target Class Profiling of Small Molecule Inhibitors of Methyltransferases (AID 1745852); settings: MTase-Glo luminescence, SAH detection, recombinant enzyme; measured here: COMT inhibition potency
# [10] = molecular target: Histamine N-methyltransferase (Homo sapiens) (UniProt P50135); assay: as above; settings: MTase-Glo luminescence, SAH detection, recombinant enzyme; measured here: HNMT inhibition potency
# [11] = molecular target: Nicotinamide N-methyltransferase (Homo sapiens) (UniProt P40261); assay: as above; settings: MTase-Glo luminescence, SAH detection, recombinant enzyme; measured here: NNMT inhibition potency
# [12] = molecular target: Phenylethanolamine N-methyltransferase (Homo sapiens) (UniProt P11086); assay: as above; settings: MTase-Glo luminescence, SAH detection, recombinant enzyme; measured here: PNMT inhibition potency
# [13] = measured here: cell count channel max response
# [14] = measured here: lipid (BODIPY) channel AC50
# [15] = measured here: lipid channel max response
# [16] = TFE3-RCC UOK109 viability, measured here: UOK109 Z-AUC
# [17] = TFE3-RCC viability, measured here: UOK124 Z-AUC
# [18] = TFE3-RCC viability, measured here: UOK124 cell viability
# [19] = TFE3-RCC viability, measured here: UOK145 Z-AUC
# [20] = TFE3-RCC viability, measured here: UOK145 cell viability
smiles,measurement,setting,value
c1coc(CNc2ncnc3nc[nH]c23)c1,AC50,[1],"5.01 µM [rising, partial curve, poor fit]"
same,max response,[2]; [13],31.9%
same,AC50,[2]; [14],"2.51 µM [rising, full curve, poor fit]"
same,max response,[2]; [15],50.7%
same,z-score,[3]; [16],0.851
same,z-score,[3]; [17],0.427
same,AC50,[3]; [18],"0.00118 µM [falling, full curve, poor fit]"
same,z-score,[3]; [19],0.0465
CC[C@@]1(O)C(=O)OCc2c1cc1n(c2=O)Cc2cc3c(CN(C)C)c(O)ccc3nc2-1,max response,[2]; [13],-25%
same,AC50,[2]; [14],"1.58 µM [falling, full curve, poor fit]"
same,max response,[2]; [15],-31%
same,AC50,[4]; measured here: 460 nm blue channel,"7.94 µM [falling, partial curve]"
same,AC50,[4]; measured here: 530 nm viability channel,"12.6 µM [rising, partial curve]"
same,AC50,[5]; measured here: PEO1 parental viability,"0.245 µM [falling, full curve]"
same,AC50,[5]; measured here: PEO4 viability,"0.616 µM [falling, full curve]"
same,AC50,[3]; [18],"0.833 µM [falling, full curve]"
same,AC50,[3]; [20],"0.833 µM [falling, full curve]"
Cn1cnc2c1c(=O)[nH]c(=O)n2C,max response,[2]; [13],26.4%
same,AC50,[2]; [14],"39.8 µM [rising, single point]"
same,max response,[2]; [15],45.7%
same,AC50,[6],"84.9 µM [falling, single point]"
same,AC50,[7],"4.11 µM [rising, full curve]"
same,z-score,[3]; [16],0.782
same,z-score,[3]; [17],-0.105
same,AC50,[3]; [18],"18.7 µM [falling, partial curve]"
same,z-score,[3]; [19],0.315
same,AC50,[3]; [20],"26.4 µM [falling, partial curve]"
NCCCC(N)(C(=O)O)C(F)F (centres undefined),max response,[2]; [13],35.2%
same,AC50,[2]; measured here: cell number channel AC50,"14.1 µM [falling, partial curve, poor fit]"
same,max response,[2]; [15],36.7%
same,AC50,[6],"37.9 µM [falling, partial curve, poor fit]"
same,viability change,[8],4.44%
same,z-score,[3]; [16],0.344
same,z-score,[3]; [17],0.855
same,AC50,[3]; [18],"0.743 µM [falling, partial curve, poor fit]"
same,z-score,[3]; [19],0.555
CC(C)OC(=O)C(C)(C)Oc1ccc(C(=O)c2ccc(Cl)cc2)cc1,max response,[2]; [13],16% and 46.7%
same,AC50,[2]; [14],"39.8 µM [rising, single point]"
same,max response,[2]; [15],36.7% and 47.2%
same,z-score,[3]; [16],0.148
same,z-score,[3]; [17],0.372
same,z-score,[3]; [19],0.296
Nc1ncnc2c1c(I)cn2C1OC(CO)C(O)C1O (centres undefined),max response,[2]; [13],-21.2%
same,AC50,[2]; [14],"7.94 µM [falling, full curve]"
same,max response,[2]; [15],-49.3%
same,IC50,[9],"10.8 µM [falling, full curve]"
same,IC50,[10],"10.8 µM [falling, full curve]"
same,IC50,[11],"12.1 µM [falling, full curve]"
same,IC50,[12],"10.8 µM [falling, full curve]"

# Fetched one by one from the list above, 4 records:
smiles,measurement,setting,value
c1coc(CNc2ncnc3nc[nH]c23)c1,max response,[2]; [15],50.7%
NCCCC(N)(C(=O)O)C(F)F (centres undefined),z-score,[3]; [17],0.855
CC[C@@]1(O)C(=O)OCc2c1cc1n(c2=O)Cc2cc3c(CN(C)C)c(O)ccc3nc2-1,max response,[2]; [13],-25%
same,AC50,[5]; measured here: PEO4 viability,"0.616 µM [falling, full curve]"
